Test results as given in PubChem BioAssay AID2685 (National Center for Advancing Translational Sciences (NCATS), 2010).
Some of the results follow. Further columns of the screen follow, without active or inactive calls. Most of these compounds were active or inconclusive in the main read-out, so they are no random draw. Words in brackets tell the shape of the fitted curve; partial curves, single points and poor fits give uncertain potencies.

Test: qHTS Assay for Lipid Storage Modulators in Drosophila S3 Cells;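 as to cell number change: cells counted by Cell Tracker Red CMTPX staining in the red channel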
Details: BODIPY lipid droplet fluorescence, 18-24 h; for cell number change: measured here: cell count max response, cells fed with added oleic acid
Summary of the method: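 Drosophila S3 cells loaded with oleic acid (400 uM, as added) and compounds at several concentrations; lipid droplets imaged by 488-nm laser-scanning cytometry, 500–530 nm intensity and object ratio to cell channel. Percent activity normalized to 20 uM Triacsin C.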

[1] = measured here: lipid fluorescence (Fed channel) AC50, cells fed with added oleic acid
[2] = measured here: cell number channel AC50, cells fed with added oleic acid

SMILES | cell number change [%] | AC50 [1] | AC50 [2]
CC(=O)c1sc2ccccc2c1OC(=O)c1ccco1 | -7.94 | 0.00651 µM [falling, full curve, poor fit] | –
COC(=O)C1(Cc2cc(-c3ccc([N+](=O)[O-])cc3)no2)CCN(C(=O)OC(C)(C)C)CC1 | -15.8 | 7.31 µM [falling, partial curve] | 6.51 µM [falling, single point]
CC(=O)N(Cc1cccc(Br)c1)c1ccc(N2CCOCC2)c(Cl)c1 | -8.03 | – | –
CN(Cc1ccccc1)C1CCNCC1 | 7.66 | 5.17 µM [rising, full curve, poor fit] | –
Cc1ccccc1OCCC(=O)N(CC(=O)Nc1ccccc1C(F)(F)F)Cc1ccco1 | -47.5 | 18.4 µM [falling, single point] | 29.1 µM [falling, single point]
Nc1nncn1C(=O)c1cccs1 | -16.4 | 0.82 µM [falling, full curve, poor fit] | 0.651 µM [falling, full curve]
O=C(NCC(=O)N1CCN(S(=O)(=O)c2ccccc2)CC1)c1ccc(Br)o1 | – | 1.03 µM [falling, full curve] | –
Cc1c(C(=O)Nc2cccc(C(F)(F)F)c2)oc2ccc(S(=O)(=O)N3CCOCC3)cc12 | 168 | 20.6 µM [rising, single point] | 16.4 µM [rising, partial curve]
Clc1cccc(N2CCN(CCNc3nc4ccccc4n4cnnc34)CC2)c1 | 86.5 | – | –
COCCCNC(=S)N(Cc1ccccc1)Cc1nc2ccccc2c(=O)[nH]1 | -10.4 | – | –
Cc1cc(C(=O)COC(=O)c2ccc(Cl)c(S(N)(=O)=O)c2)c(C)n1CC1CCCO1 (stereo unspecified) | 53.9 | – | 5.8 µM [rising, partial curve]
Clc1ccccc1Cc1noc(CN2CCCCC2CCc2ccccn2)n1 (stereo unspecified) | 3.3 | 0.651 µM [rising, single point] | –
Cc1ccc(S(=O)(=O)NCCC(=O)N2CCN(C/C=C/c3ccccc3)CC2)cc1 | -27.5 | 18.4 µM [falling, single point] | –
COC(=O)c1ccc(NS(=O)(=O)c2cccc3cccnc23)cc1 | 23.3 | 6.51 µM [rising, single point] | –
COc1ccccc1CN(C)C(C)C(=O)Nc1cccc(C(C)=O)c1 (stereo unspecified) | -57.4 | – | –
N#Cc1c(NC(=O)CSc2nc3ccccc3c(=O)n2Cc2ccco2)sc2c1CCCC2 | -8.6 | – | –
Cc1ccc(O)c(NC(=O)CSc2n[nH]c(-c3ccccc3)n2)c1 | -26.5 | – | –
Fc1cccc2sc(Nc3nnc(-c4ccco4)o3)nc12 | -34.7 | 32.6 µM [falling, single point] | –
COc1ccc(/C=C2/CCOC2=O)cc1 | 38.4 | – | 23.1 µM [rising, single point]
Cn1cc2c(=O)n(/N=C/c3ccccc3)cnc2n1 | 16.5 | – | 3.26 µM [rising, single point]
O=C(C1CCCN(Cc2cccs2)C1)N1CCCCCC1 (stereo unspecified) | 5.47 | 9.2 µM [rising, partial curve] | –

SMILES | cell number change [%] | AC50 [1] | AC50 [2]
Cc1ccc(C(=O)Cn2c(N3CCOCC3)nc3c2c(=O)n(C)c(=O)n3C)cc1 | -4.14 | – | –
CC(C(=O)O)c1cccc(C(=O)c2ccccc2)c1 (stereo unspecified) | – | 2.91 µM [falling, full curve] | –
O=C(Cn1c(=O)[nH]c2sc3c(c2c1=O)CCCC3)NCC1CCCO1 (stereo unspecified) | 24.2 | 0.291 µM [rising, full curve, poor fit] | –
CC(NC(=O)c1cc(COc2ccc3ncccc3c2)on1)c1ccc(F)cc1 (stereo unspecified) | -41.3 | 29.1 µM [falling, single point] | –
Cc1nnc(NC(=O)c2sc3ccccc3c2Cl)s1 | -10.8 | – | –
COc1ccc2c(c1)cc1c(=O)n(CC(=O)NCCCN3CCOCC3)nc(C)n12 | -5.67 | – | –
CCCCC(=O)N/N=C(\C)c1cccc(NC(=O)C2CC2)c1 | 29.7 | 2.91 µM [rising, partial curve, poor fit] | –
COc1cc(C(=O)N2CCC(O)(c3ccccc3)CC2)cc(OC)c1OC | – | 0.461 µM [falling, full curve] | 0.731 µM [falling, single point]
CC(C)(C)CC(C)(C)c1ccc(O)c(CN2CCN(CCC#N)CC2)c1 | -56.8 | 0.146 µM [rising, full curve, poor fit] | 20.6 µM [falling, single point]
COCC(C)NC(=O)CSc1ncnc2sc(-c3ccccc3)cc12 (stereo unspecified) | -3.23 | 0.00517 µM [falling, full curve, poor fit] | –
O=C1c2ccccc2C(=O)N1c1ccc(Cl)cc1 | -16.2 | – | –
Cn1cnc(S(=O)(=O)N2CCN(c3cccc(Cl)c3)CC2)c1 | -6.73 | 5.8 µM [falling, single point] | –
COc1ccc(/C(=N/O)C(C)(C)NO)cc1 | 2.26 | 3.26 µM [falling, full curve, poor fit] | –
CC(C)Sc1ncc(S(=O)(=O)c2ccccc2)c(=O)[nH]1 | -5.61 | 6.51 µM [rising, single point] | –
COC(=O)c1ccccc1NC(=O)[C@@H]1CCC(=O)N1C1OC(=O)c2c1ccc(OC)c2OC (stereo partly specified) | 6.15 | 29.1 µM [rising, single point] | –
Nc1ncc(Br)cc1N=Cc1ccccc1 | 13.7 | 8.2 µM [rising, partial curve, poor fit] | –
CC(OC(=O)C1CCN(S(=O)(=O)c2ccc(C(C)(C)C)cc2)CC1)C(=O)N1CCOCC1 (stereo unspecified) | -9.18 | – | –
COc1cc(/C=C2/C(=N)N3C(=NC2=O)SN=C3S(=O)(=O)C(C)C)ccc1OC(=O)c1ccco1 | 0.19 | 9.2 µM [falling, partial curve] | –
CCC(Oc1ccccc1)C(=O)Nc1ccc(S(=O)(=O)Nc2cnc3ccccc3n2)cc1 (stereo unspecified) | -40.6 | – | 5.8 µM [falling, full curve]
Cc1cc(Cl)ccc1OCCCC(=O)NCc1ccncc1 | 8.2 | – | –
COc1ccc(C(=O)OCC(=O)NCCCc2ccccc2)cc1[N+](=O)[O-] | -19.3 | 3.66 µM [falling, single point] | 4.11 µM [falling, single point]

A few values from the results shown:
For cell number change [%], O=C1c2ccccc2C(=O)N1c1ccc(Cl)cc1 is entered as -16.2
For AC50 [1], Fc1cccc2sc(Nc3nnc(-c4ccco4)o3)nc12 is entered as 32.6 µM [falling, single point]
